Experimental data as given in the supplement of paper PMC11438910.
Some of the results follow. The signal is at background level for most entries.

What was measured:
Test in all cases: fluorescence intensity of antibody binding to polysaccharide-coupled beads; higher = stronger binding
[1] = biological target: pneumococcal polysaccharide Pn11F
Experimental: (§1)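 Recombinant rhesus-murine chimeric IgG1 antibodies were tested against antigen-coupled MagPlex beads in a 96-plex Luminex direct immunoassay (dLIA). The beads carried pneumococcal capsular polysaccharides of 93 serotypes plus C-polysaccharides. Antibody was added at 0.1–12,500 ng/mL for 1 h, then PE anti-mouse IgG, and net MFI was read on a Bio-Plex 3D. Only the rhesus variable regions are printed; constant regions are murine IgG1/kappa/lambda, and the signal peptide is MGWSCIILFLVATATGVHS.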

[2] = biological target: pneumococcal polysaccharide Pn12A
Experimental: as §1

[3] = biological target: pneumococcal polysaccharide Pn12B
Experimental: as §1

[4] = biological target: pneumococcal polysaccharide Pn12F
Experimental: as §1

[5] = biological target: pneumococcal polysaccharide Pn13
Experimental: as §1

[6] = biological target: pneumococcal polysaccharide Pn14
Experimental: as §1

[7] = biological target: pneumococcal polysaccharide Pn15A
Experimental: as §1

[8] = biological target: pneumococcal polysaccharide Pn15B
Experimental: as §1

[9] = biological target: pneumococcal polysaccharide Pn15C
Experimental: as §1

[10] = biological target: pneumococcal polysaccharide Pn15F
Experimental: as §1

[11] = biological target: pneumococcal polysaccharide Pn16A
Experimental: as §1

[12] = biological target: pneumococcal polysaccharide Pn16F
Experimental: as §1

[13] = antibody concentration 2.8593 ng/mL
[14] = antibody concentration 15.2894 ng/mL
[15] = antibody concentration 81.7561 ng/mL
[16] = antibody concentration 437.17 ng/mL
[17] = antibody concentration 2337.65 ng/mL
[18] = antibody concentration 12500 ng/mL
[19] = antibody concentration 0.1 ng/mL
[20] = antibody concentration 0.534724 ng/mL

B1: 4-99.5 (protein)
chain 1: QVQLQESGPGLVKPSETLSLTCAVSGYSISSGYYWGWIRQPPGKGLEYIGYISGSSGSPYYNPSLKSRVTISKDTSKNQFSLKLSSATAADTAVYYCARRQVGIGFDYWGQGVLVTVSS
chain 2: QAAPTQPPSVSGSPGQSVTISCTGTSSDIGYYNAVSWYQQHPGKAPKLMIYEVSKRPSGVSDRFSGSKSGNTASLTISGLQAEDEADYYCSSYAGSNTYIFGAGTRLTVL
fluorescence intensity [1, 13]: 14 MFI | fluorescence intensity [1, 14]: 14.8 MFI | fluorescence intensity [1, 15]: 15.5 MFI | fluorescence intensity [1, 16]: 14 MFI | fluorescence intensity [1, 17]: 14.5 MFI | fluorescence intensity [1, 18]: 20 MFI | fluorescence intensity [2, 19]: 15 MFI | fluorescence intensity [2, 20]: 15.5 MFI | fluorescence intensity [2, 13]: 17 MFI | fluorescence intensity [2, 14]: 15 MFI | fluorescence intensity [2, 15]: 15 MFI | fluorescence intensity [2, 16]: 14.8 MFI | fluorescence intensity [2, 17]: 18 MFI | fluorescence intensity [2, 18]: 30.5 MFI | fluorescence intensity [3, 19]: 19 MFI | fluorescence intensity [3, 20]: 16 MFI | fluorescence intensity [3, 13]: 16.5 MFI | fluorescence intensity [3, 14]: 15.5 MFI | fluorescence intensity [3, 15]: 15.8 MFI | fluorescence intensity [3, 16]: 15.5 MFI | fluorescence intensity [3, 17]: 18.5 MFI | fluorescence intensity [3, 18]: 28.5 MFI | fluorescence intensity [4, 19]: 18.5 MFI | fluorescence intensity [4, 20]: 16.5 MFI | fluorescence intensity [4, 13]: 18 MFI | fluorescence intensity [4, 14]: 20 MFI | fluorescence intensity [4, 15]: 17.5 MFI | fluorescence intensity [4, 16]: 18.5 MFI | fluorescence intensity [4, 17]: 21.2 MFI | fluorescence intensity [4, 18]: 27.5 MFI | fluorescence intensity [5, 19]: 18.8 MFI | fluorescence intensity [5, 20]: 20.5 MFI | fluorescence intensity [5, 13]: 19.5 MFI | fluorescence intensity [5, 14]: 18 MFI | fluorescence intensity [5, 15]: 18.5 MFI | fluorescence intensity [5, 16]: 19.5 MFI | fluorescence intensity [5, 17]: 19.5 MFI | fluorescence intensity [5, 18]: 28 MFI | fluorescence intensity [6, 19]: 13.8 MFI | fluorescence intensity [6, 20]: 15.5 MFI | fluorescence intensity [6, 13]: 15 MFI | fluorescence intensity [6, 14]: 16.2 MFI | fluorescence intensity [6, 15]: 15 MFI | fluorescence intensity [6, 16]: 15.5 MFI | fluorescence intensity [6, 17]: 16.2 MFI | fluorescence intensity [6, 18]: 43 MFI | fluorescence intensity [7, 19]: 13 MFI | fluorescence intensity [7, 20]: 12.5 MFI | fluorescence intensity [7, 13]: 13.5 MFI | fluorescence intensity [7, 14]: 13 MFI | fluorescence intensity [7, 15]: 13.2 MFI | fluorescence intensity [7, 16]: 13 MFI | fluorescence intensity [7, 17]: 15 MFI | fluorescence intensity [7, 18]: 16 MFI | fluorescence intensity [8, 19]: 18.2 MFI | fluorescence intensity [8, 20]: 20 MFI | fluorescence intensity [8, 13]: 19.2 MFI | fluorescence intensity [8, 14]: 18.5 MFI | fluorescence intensity [8, 15]: 20.2 MFI | fluorescence intensity [8, 16]: 21 MFI | fluorescence intensity [8, 17]: 21 MFI | fluorescence intensity [8, 18]: 25.5 MFI | fluorescence intensity [9, 19]: 18.5 MFI | fluorescence intensity [9, 20]: 19 MFI | fluorescence intensity [9, 13]: 17.5 MFI | fluorescence intensity [9, 14]: 16 MFI | fluorescence intensity [9, 15]: 16.5 MFI | fluorescence intensity [9, 16]: 20.8 MFI | fluorescence intensity [9, 17]: 18.5 MFI | fluorescence intensity [9, 18]: 22 MFI | fluorescence intensity [10, 19]: 17.2 MFI | fluorescence intensity [10, 20]: 17.5 MFI | fluorescence intensity [10, 13]: 17.5 MFI | fluorescence intensity [10, 14]: 17.5 MFI | fluorescence intensity [10, 15]: 18 MFI | fluorescence intensity [10, 16]: 18.8 MFI | fluorescence intensity [10, 17]: 18 MFI | fluorescence intensity [10, 18]: 25.5 MFI | fluorescence intensity [11, 19]: 16 MFI | fluorescence intensity [11, 20]: 14.5 MFI | fluorescence intensity [11, 13]: 13 MFI | fluorescence intensity [11, 14]: 14 MFI | fluorescence intensity [11, 15]: 15 MFI | fluorescence intensity [11, 16]: 15 MFI | fluorescence intensity [11, 17]: 16.5 MFI | fluorescence intensity [11, 18]: 20.5 MFI | fluorescence intensity [12, 19]: 25.5 MFI | fluorescence intensity [12, 20]: 23.8 MFI | fluorescence intensity [12, 13]: 25.8 MFI | fluorescence intensity [12, 14]: 23.5 MFI
